{"sequences": {"note": "By UniProt entry, the sequences of proteins in these tests, tags left out. Residues count along the entry.", "UniProt P21926": "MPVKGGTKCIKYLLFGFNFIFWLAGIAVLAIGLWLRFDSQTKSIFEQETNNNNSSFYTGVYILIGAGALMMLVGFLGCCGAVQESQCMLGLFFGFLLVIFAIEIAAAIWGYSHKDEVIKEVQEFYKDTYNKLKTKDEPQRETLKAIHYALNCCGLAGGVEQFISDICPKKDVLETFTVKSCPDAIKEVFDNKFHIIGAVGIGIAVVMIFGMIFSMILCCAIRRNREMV", "UniProt P16070, residues 21-742": "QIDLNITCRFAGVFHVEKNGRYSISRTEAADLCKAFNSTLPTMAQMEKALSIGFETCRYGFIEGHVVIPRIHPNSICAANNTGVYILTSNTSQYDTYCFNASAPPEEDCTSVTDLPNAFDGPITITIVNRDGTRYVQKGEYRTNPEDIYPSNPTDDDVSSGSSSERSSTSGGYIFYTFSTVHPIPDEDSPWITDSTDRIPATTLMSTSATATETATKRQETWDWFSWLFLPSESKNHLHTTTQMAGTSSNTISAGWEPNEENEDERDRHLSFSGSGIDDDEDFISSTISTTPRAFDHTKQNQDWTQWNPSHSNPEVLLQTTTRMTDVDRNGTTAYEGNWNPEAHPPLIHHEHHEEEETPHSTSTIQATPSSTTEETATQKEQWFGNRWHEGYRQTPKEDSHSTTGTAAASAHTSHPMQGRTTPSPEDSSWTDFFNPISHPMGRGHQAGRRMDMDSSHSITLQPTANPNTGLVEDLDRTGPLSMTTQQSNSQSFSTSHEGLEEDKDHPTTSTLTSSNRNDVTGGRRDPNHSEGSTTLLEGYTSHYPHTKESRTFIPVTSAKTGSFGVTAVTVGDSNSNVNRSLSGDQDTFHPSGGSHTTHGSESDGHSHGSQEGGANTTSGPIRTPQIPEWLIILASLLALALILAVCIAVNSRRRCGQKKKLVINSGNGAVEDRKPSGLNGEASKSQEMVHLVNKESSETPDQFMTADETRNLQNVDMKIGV"}, "source": "paper PMC13080232", "biological_target": "CD9:TurboID fusion protein (human) (UniProt P21926)", "assay": "co-IP; RIPA whole cell lysates of CD9-/- A549 cells transfected with CD9:TurboID (eGFP cells as control); rabbit anti-V5 antibody on protein G magnetic beads, 60 min at 4 °C; washed in PBS with 0.2% Triton X-100; blots probed with anti-CD44 or anti-CD147", "note": "No constants are given. Whether binding was seen depends on the method and setting. Binding seen in cells or lysates may run through a third protein. Some entries that bind do so weakly or less than the wild type.", "data": [{"substance": "CD44 (from UniProt P16070 21-742)", "values": [{"measurement": "binding", "result": "binds"}]}]}
